PubChem BioAssay AID504791, Drosophila RNAi Screening Center, 2011

Test: 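Genes of the fly required for silencing by miRNA, siRNA or endo-siRNA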 (primary screen)
Cells: Drosophila S2-derived reporter cells
Reagent: long dsRNA against Drosophila genes, about 150-250 ng dsRNA per well (siRNA assay); about 80-120 ng (miRNA assay)
Duration: about 5 days (siRNA assay); about 4 days (miRNA assay)
Challenge: copper sulfate induction of reporters: 25 µM (siRNA assay); 200 mM stated (miRNA assay), 1-2 days before reading
Measurement: 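Per-well ratio of Renilla over firefly light, expressed relative to that plate's average ratio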
Reading the numbers: siRNA reporter hit score: higher = 3 marks a strong hit with raised ratio; -3 a strong hit with lowered ratio
Hit rule: 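a well was a first-pass pick when its plate-scaled ratio rose above 1.5 (siRNA assay) or 1.6 (miRNA assay), or dropped below 0.6; a gene counted only if two separate dsRNAs agreed on retest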
The deposit covers about 23,000 reagents; below is a random part of those with a known target gene and a result. In the full data, 199 (0.86%) are marked active. 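Plate-scaled ratios behind the calls are not deposited; printed light signals are raw; many rows marked increased or decreased are still called inactive.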 The numbers tell different reagents against one gene apart. Names joined by + are all predicted targets of the reagent.

| gene | reagent no. | siRNA reporter hit score | stable siRNA reporter change | miRNA reporter change | stable assay Renilla, run 1 (luminescence) | stable assay firefly, run 1 (luminescence) | call |
| --- | --- | --- | --- | --- | --- | --- | --- |
| neur (neuralized) | 1 | – | – | – | 9218 | 4.43e5 | inactive |
| CG15572 | 1 | – | – | – | 5763 | 3.19e5 | inactive |
| CG13862 | 1 | – | – | – | 7590 | 3.75e5 | inactive |
| CG15369 | 1 | – | – | – | 4495 | 3.76e5 | inactive |
| chp (chaoptin) | 1 | – | – | – | 6483 | 5.05e5 | inactive |
| CG5961 | 1 | – | – | – | 7510 | 4.09e5 | inactive |
| Trs33 (TRAPP subunit 33) | 1 | – | – | – | 7854 | 3.21e5 | inactive |
| CG13526 | 1 | – | – | – | 5868 | 3.45e5 | inactive |
| CG9672 | 1 | – | – | – | 8513 | 6.89e5 | inactive |
| Cen (Centrocortin) | 1 | – | – | – | 7538 | 6.93e5 | inactive |
| PNUTS (Phosphatase 1 nuclear targeting subunit) | 1 | -3 | – | – | 37344 | 1.09e5 | inactive |
| PNUTS (Phosphatase 1 nuclear targeting subunit) | 2 | – | – | – | 8787 | 5.66e5 | inactive |
| CG9330 | 1 | – | – | – | 7543 | 3.47e5 | inactive |
| LpR2 (Lipophorin receptor 2) | 1 | – | – | – | 5584 | 4.37e5 | inactive |
| LpR2 (Lipophorin receptor 2) | 2 | – | – | – | 6244 | 3.92e5 | inactive |
| LpR2 (Lipophorin receptor 2) | 3 | – | – | – | 7942 | 4.21e5 | inactive |
| LpR2 (Lipophorin receptor 2) | 4 | – | – | – | 6887 | 3.29e5 | inactive |
| Slbp (Stem-loop binding protein) | 1 | – | – | – | 5916 | 4.08e5 | inactive |
| CG17650 | 1 | – | – | – | 8815 | 6.62e5 | inactive |
| CG1791 | 1 | – | – | – | 7870 | 3.42e5 | inactive |
| Drsl4 (Drosomycin-like 4) | 1 | – | – | – | 5434 | 4.33e5 | inactive |
| CG30049 | 1 | – | – | – | 8358 | 4.65e5 | inactive |
| RhoGAP5A (Rho GTPase activating protein at 5A) | 1 | – | – | – | 8813 | 5.38e5 | inactive |
| CG32061 | 1 | – | – | – | 4007 | 3.40e5 | inactive |
| mil (milkah) | 1 | – | – | – | 7259 | 4.43e5 | inactive |
| CG12702 | 1 | – | – | – | 5715 | 4.71e5 | inactive |
| CG10761 | 1 | – | – | – | 6123 | 2.94e5 | inactive |
| ZnT33D (Zinc transporter 33D) | 1 | – | – | – | 6839 | 3.13e5 | inactive |
| Nopp140 | 1 | – | – | – | 8370 | 4.84e5 | inactive |
| yip3 (yippee interacting protein 3) | 1 | – | – | – | 7172 | 3.52e5 | inactive |
| CG13284 | 1 | – | – | – | 6931 | 3.94e5 | inactive |
| CG32820 + CG17450 + CG32819 | 1 | – | – | – | 9186 | 5.48e5 | inactive |
| CG32820 + CG17450 + CG32819 | 2 | – | – | – | 4339 | 4.85e5 | inactive |
| Pmm2 (Phosphomannomutase type 2) | 1 | – | – | – | 6482 | 4.77e5 | inactive |
| beat-Vb (beaten path Vb) | 1 | – | – | – | 5579 | 5.68e5 | inactive |
| beat-Vb (beaten path Vb) | 2 | – | – | – | 4203 | 4.96e5 | inactive |
| beat-Vb (beaten path Vb) | 3 | – | – | – | 7174 | 4.55e5 | inactive |
| CG18765 | 1 | – | – | – | 6455 | 3.72e5 | inactive |
| CG14505 | 1 | – | – | – | 6423 | 3.15e5 | inactive |
| kar (karmoisin) | 1 | – | – | – | 7911 | 3.60e5 | inactive |
| CG13858 (retired record) | 1 | – | – | – | 6676 | 3.45e5 | inactive |
| CG13858 (retired record) | 2 | – | – | – | 7976 | 3.11e5 | inactive |
| CG13858 (retired record) | 3 | – | – | – | 7514 | 3.11e5 | inactive |
| CG13858 (retired record) | 4 | – | – | – | 8135 | 3.63e5 | inactive |
| CG14355 | 1 | – | – | – | 9429 | 6.57e5 | inactive |
| CG7432 | 1 | – | – | – | 9078 | 3.57e5 | inactive |
| frtz (fritz) | 1 | – | – | – | 7837 | 5.68e5 | inactive |
| Eig71Ek | 1 | – | – | – | 9184 | 3.97e5 | inactive |
| CG6118 | 1 | – | – | – | 5460 | 2.58e5 | inactive |
| CG6118 | 2 | – | – | – | 2452 | 2.30e5 | inactive |
| Or24a (Odorant receptor 24a) | 1 | – | reporter ratio lowered past the hit cutoff | – | 7616 | 7.07e5 | inactive |
| CG31560 | 1 | – | – | – | 6722 | 5.12e5 | inactive |
| CG5727 | 1 | – | – | – | 5.73e5 | 3.40e5 | inactive |
| EAChm (Enhancer of Acetyltransferase Chameau) | 1 | – | – | – | 7898 | 3.15e5 | inactive |
| Ocho | 1 | – | – | – | 7178 | 2.77e5 | inactive |
| CG3719 | 1 | – | – | – | 3655 | 3.48e5 | inactive |
| tmod (tropomodulin) | 1 | – | – | – | 8239 | 4.27e5 | inactive |
| tmod (tropomodulin) | 2 | – | – | – | 6570 | 3.93e5 | inactive |
| tmod (tropomodulin) | 3 | – | – | – | 6250 | 4.47e5 | inactive |
| tmod (tropomodulin) | 4 | – | – | – | 8595 | 5.84e5 | inactive |
| CG32650 | 1 | – | – | – | 7099 | 5.99e5 | inactive |
| CG32651 | 1 | – | – | – | 4779 | 3.40e5 | inactive |
| sip3 (septin interacting protein 3) | 1 | – | – | – | 7098 | 4.58e5 | inactive |
| sip3 (septin interacting protein 3) | 2 | – | – | reporter ratio lowered past the hit cutoff | – | – | inactive |
| NUCB1 (Nucleobindin 1) | 1 | – | – | – | 10138 | 7.04e5 | inactive |
| anne (anne boleyn) | 1 | – | – | – | 8188 | 4.79e5 | inactive |
| CG33090 | 1 | – | – | – | 7183 | 1.52e6 | inactive |
| Dhx15 (DEAH-box helicase 15) | 1 | – | – | – | 22974 | 1.95e6 | inactive |
| CG7133 | 1 | – | – | – | 7832 | 2.95e5 | inactive |
| CG5174 | 1 | – | – | – | 9358 | 3.66e5 | inactive |
| CG14785 | 1 | – | – | – | 9692 | 4.48e5 | inactive |
| rb (ruby) | 1 | – | – | – | 6067 | 3.24e5 | inactive |
| Sar1 (Secretion-associated Ras-related 1) | 1 | – | – | – | 8471 | 3.13e5 | inactive |
| Sar1 (Secretion-associated Ras-related 1) | 2 | – | – | – | 5246 | 4.16e5 | inactive |
| Upf1 (Upf1 RNA helicase) | 1 | – | – | reporter ratio raised past the hit cutoff | 11423 | 5.95e5 | inactive |
| CG15472 | 1 | – | – | – | 5999 | 2.83e5 | inactive |
| CG10550 | 1 | – | – | – | 7649 | 4.49e5 | inactive |
| Tim17b2 (Translocase inner membrane 17) | 1 | – | – | – | 7834 | 4.95e5 | inactive |
| synr (sayonara) | 1 | – | – | – | 8707 | 6.28e5 | inactive |
| CG32669 | 1 | – | – | – | 5492 | 3.23e5 | inactive |
| nec (necrotic) | 1 | – | – | – | 6810 | 3.50e5 | inactive |
| CG33301 | 1 | – | – | – | 7142 | 3.98e5 | inactive |
| Su(z)12 | 1 | – | – | – | 7180 | 4.26e5 | inactive |

A stretch taken from the entries so far, as a working copy:
| gene | reagent no. | siRNA reporter hit score | stable siRNA reporter change | miRNA reporter change | stable assay Renilla, run 1 (luminescence) | stable assay firefly, run 1 (luminescence) | call |
| --- | --- | --- | --- | --- | --- | --- | --- |
| LpR2 (Lipophorin receptor 2) | 4 | – | – | – | 6887 | 3.29e5 | inactive |
| Slbp (Stem-loop binding protein) | 1 | – | – | – | 5916 | 4.08e5 | inactive |
| CG17650 | 1 | – | – | – | 8815 | 6.62e5 | inactive |
| CG1791 | 1 | – | – | – | 7870 | 3.42e5 | inactive |
| Drsl4 (Drosomycin-like 4) | 1 | – | – | – | 5434 | 4.33e5 | inactive |
| CG30049 | 1 | – | – | – | 8358 | 4.65e5 | inactive |
